Measured values as given in PMC10575921 (Nature Communications, 2023).
pIC50: −log10 of the molar value.

Tested on: human primary hepatocytes
Experiment: cells
Conditions: Hepatocyte

CC/C(=C(\c1ccccc1)c1ccc(OCCN(C)C)cc1)c1ccccc1 [Tamoxifen]
pIC50: 5.10
